Our source for the binding values is PMC4911916.

By UniProt entry, the sequences of proteins in these tests, tags left out. Where a name states a change or a piece, a line headed by the entry shows the natural chain unless it says otherwise.
UniProt Q9UKV8: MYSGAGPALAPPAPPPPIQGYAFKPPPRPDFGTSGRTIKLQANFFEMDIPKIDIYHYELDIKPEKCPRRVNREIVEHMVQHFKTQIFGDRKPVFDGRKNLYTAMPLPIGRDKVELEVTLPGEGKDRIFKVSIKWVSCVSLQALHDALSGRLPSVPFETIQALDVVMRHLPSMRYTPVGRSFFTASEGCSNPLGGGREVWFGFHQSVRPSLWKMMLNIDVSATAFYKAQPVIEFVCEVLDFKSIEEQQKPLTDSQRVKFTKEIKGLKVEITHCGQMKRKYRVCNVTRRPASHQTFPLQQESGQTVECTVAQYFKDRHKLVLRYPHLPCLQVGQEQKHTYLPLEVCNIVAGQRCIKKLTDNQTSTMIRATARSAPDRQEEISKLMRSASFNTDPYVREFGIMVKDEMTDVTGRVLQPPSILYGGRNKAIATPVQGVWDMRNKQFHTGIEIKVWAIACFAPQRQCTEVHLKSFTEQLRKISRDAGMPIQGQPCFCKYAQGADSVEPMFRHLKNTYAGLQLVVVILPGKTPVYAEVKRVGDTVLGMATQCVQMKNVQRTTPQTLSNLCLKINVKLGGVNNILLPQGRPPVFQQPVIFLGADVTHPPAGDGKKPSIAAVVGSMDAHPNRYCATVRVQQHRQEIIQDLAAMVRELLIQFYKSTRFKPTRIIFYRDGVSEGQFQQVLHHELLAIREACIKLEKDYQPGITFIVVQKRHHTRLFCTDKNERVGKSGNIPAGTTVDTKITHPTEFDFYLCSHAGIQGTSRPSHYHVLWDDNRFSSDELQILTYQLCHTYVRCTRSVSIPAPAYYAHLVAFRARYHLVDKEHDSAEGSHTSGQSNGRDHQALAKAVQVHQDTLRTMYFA

No constants are given. Whether binding was seen depends on the method and setting. Binding seen in cells or lysates may run through a third protein. A yes stands for co-enrichment or nearness to the bait. Other partners may have been found. For some assays here: No binding means not detected with the bait.

Test [1] has as its target Flag-HA-tagged AGO2 (human) (UniProt Q9UKV8). The test can be described thus: affinity purification with mass spectrometry; anti-Flag resin IP of Flag-AGO2 from nuclear extract of the stable T47D line, treated with RNase (TurboNuclease); 6 washes in IP300 buffer; control: Flag IP from T47D extract; LC/MS/MS, SINQ.
For test [2], the target named is Flag-HA-tagged AGO2 (human), Q9UKV8. The test can be described thus: affinity purification with mass spectrometry; anti-Flag resin IP of Flag-AGO2 from cytoplasmic extract of the stable T47D line, no RNase; overnight 4°C; 6 washes in IP300 buffer (300 mM NaCl, 0.05% NP-40); control: Flag IP from T47D extract; LC/MS/MS, SINQ. The conditions noted are these: remark: other sources report otherwise.

Test [3] addresses endogenous Argonaute 2 (AGO2) (human (endogenous in T47D)), Q9UKV8. Briefly: affinity purification with mass spectrometry; anti-AGO2 antibody (cross-linked to resin) IP of endogenous AGO2 from T47D cytoplasmic extract, no RNase; overnight 4°C; 6 washes in IP300 buffer (300 mM NaCl, 0.05% NP-40); control: mouse IgG resin; LC/MS/MS, SINQ. Conditions: remark: other sources report otherwise.

Test [4] addresses Flag-HA-tagged AGO2 (human), Q9UKV8. Briefly: affinity purification with mass spectrometry; anti-Flag resin IP of Flag-AGO2 from cytoplasmic extract of the stable T47D line, treated with RNase (TurboNuclease 1:10,000, 30 min, room temperature); 6 washes in IP300 buffer; control: Flag IP from T47D extract; LC/MS/MS, SINQ. The conditions noted are these: remark: other sources report otherwise.

Test [5] deals with Flag-HA-tagged AGO2 (human) (UniProt Q9UKV8). Briefly: affinity purification with mass spectrometry; anti-Flag resin IP of Flag-AGO2 from nuclear extract of the stable T47D line, no RNase (DNase added); 6 washes in IP300 buffer; control: Flag IP from T47D extract; LC/MS/MS, SINQ.
The target in test [6] is endogenous Argonaute 2 (AGO2) (human (endogenous in T47D)) (UniProt Q9UKV8). Briefly: affinity purification with mass spectrometry; anti-AGO2 antibody IP of endogenous AGO2 from T47D nuclear extract, treated with RNase (TurboNuclease); 6 washes in IP300 buffer; control: mouse IgG resin; LC/MS/MS, SINQ.
Test [7] shares this target. Briefly: affinity purification with mass spectrometry; anti-AGO2 antibody IP of endogenous AGO2 from T47D nuclear extract, no RNase (DNase added); 6 washes in IP300 buffer; control: mouse IgG resin; LC/MS/MS, SINQ.

B1: PEG10 (protein, UniProt Q86TG7 1-708)
chain: MTERRRDELSEEINNLREKVMKQSEENNNLQSQVQKLTEENTTLREQVEPTPEDEDDDIELRGAAAAAAPPPPIEEECPEDLPEKFDGNPDMLAPFMAQCQIFMEKSTRDFSVDRVRVCFVTSMMTGRAARWASAKLERSHYLMHNYPAFMMEMKHVFEDPQRREVAKRKIRRLRQGMGSVIDYSNAFQMIAQDLDWNEPALIDQYHEGLSDHIQEELSHLEVAKSLSALIGQCIHIERRLARAAAARKPRSPPRALVLPHIASHHQVDPTEPVGGARMRLTQEEKERRRKLNLCLYCGTGGHYADNCPAKASKSSPAGKLPGPAVEGPSATGPEIIRSPQDDASSPHLQVMLQIHLPGRHTLFVRAMIDSGASGNFIDHEYVAQNGIPLRIKDWPILVEAIDGRPIASGPVVHETHDLIVDLGDHREVLSFDVTQSPFFPVVLGVRWLSTHDPNITWSTRSIVFDSEYCRYHCRMYSPIPPSLPPPAPQPPLYYPVDGYRVYQPVRYYYVQNVYTPVDEHVYPDHRLVDPHIEMIPGAHSIPSGHVYSLSEPEMAALRDFVARNVKDGLITPTIAPNGAQVLQVKRGWKLQVSYDCRAPNNFTIQNQYPRLSIPNLEDQAHLATYTEFVPQIPGYQTYPTYAAYPTYPVGFAWYPVGRDGQGRSLYVPVMITWNPHWYRQPPVPQYPPPQPPPPPPPPPPPPSYSTL
Take B1: the binding result in test [1] is “binds”.

B2: TAR RNA binding protein (TRBP), Q15633-1 1-366 (protein)
chain: MSEEEQGSGTTTGCGLPSIEQMLAANPGKTPISLLQEYGTRIGKTPVYDLLKAEGQAHQPNFTFRVTVGDTSCTGQGPSKKAAKHKAAEVALKHLKGGSMLEPALEDSSSFSPLDSSLPEDIPVFTAAAAATPVPSVVLTRSPPMELQPPVSPQQSECNPVGALQELVVQKGWRLPEYTVTQESGPAHRKEFTMTCRVERFIEIGSGTSKKLAKRNAAAKMLLRVHTVPLDARDGNEVEPDDDHFSIGVGSRLDGLRNRGPGCTWDSLRNSVGEKILSLRSCSLGSLGALGPACCRVLSELSEEQAFHVSYLDIEELSLSGLCQCLVELSTQPATVCHGSATTREAARGEAARRALQYLKIMAGSK
In the case of B2, the binding entry in test [2], in test [3] and in test [4] was “binds” throughout.

B3: TAR RNA binding protein (TRBP) (protein, UniProt Q15633-1 1-366)
chain: B2 chain
Consider B3, for which the binding entry in test [5], in test [6], in test [1] and in test [7] was “no binding (only in nuclear extract)” each time.
